Assay results taken from publication PMC3774411, “Characterization of the Human Sigma-1 Receptor Chaperone Domain Structure and Binding Immunoglobulin Protein (BiP) Interactions*” (The Journal of Biological Chemistry, 2013).
These are yes or no findings as the source states them, for the method shown.

Protein sequences, listed by entry. Tags and fused reporters are not part of them. Residues count along the entry.
UniProt Q99720, residues 112-223: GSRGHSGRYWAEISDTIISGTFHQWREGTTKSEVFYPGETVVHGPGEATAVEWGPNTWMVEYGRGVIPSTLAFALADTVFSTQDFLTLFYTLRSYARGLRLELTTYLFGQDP
UniProt P11021, residues 418-638: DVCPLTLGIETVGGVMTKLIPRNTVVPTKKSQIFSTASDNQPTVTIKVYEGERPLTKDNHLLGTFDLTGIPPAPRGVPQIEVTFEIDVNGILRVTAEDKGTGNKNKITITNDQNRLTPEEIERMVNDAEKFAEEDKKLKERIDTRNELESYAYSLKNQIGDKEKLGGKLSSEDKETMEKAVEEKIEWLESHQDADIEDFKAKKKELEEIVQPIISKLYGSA

Biological target: human sigma-1 receptor chaperone domain (residues 112-223) (human) (UniProt Q99720)
Experiment: condition: 1:1 molar ratio, in the presence of 2.5 mM calcium; NMR titration; 15N-labelled S1R(cd) (~250 uM) in DPC micelles titrated with unlabelled BiP constructs; 1H,15N SOFAST-HMQC, cross-peak intensities and chemical shifts; 100 mM NaCl, 30 mM DPC, 5 mM 2-mercaptoethanol, 20 mM HEPES pH 6.5, 37 C; full-length BiP without and with 2.5 mM calcium chloride, NBD without calcium, SBD with 2.5 mM calcium; both purified

binding: no binding
Substance: isolated substrate binding domain of human BiP (residues 418-638) (from UniProt P11021 418-638) (domain or fragment)
